PubChem BioAssay AID2551 (National Center for Advancing Translational Sciences (NCATS), 2010)
Screen size: about 310,000 compounds; about 17,000 (5.5%) were called active. Inconclusive results, whose numbers are uncertain, are shown with a selection of clear calls. The call rests on the fitted dose curve; in most records, active means well fitted inhibition curve with a large enough effect; inconclusive means small, poorly fitted or top-dose-only effect, or effect the other way; inactive means no such curve, though single readings can be large or run the other way. Potencies of inconclusive entries are doubtful fits and often do not repeat.

The chains behind the UniProt entries cited, without tags or fusion partners. Where a name states a change or a piece, a line headed by the entry shows the natural chain unless it says otherwise.
UniProt P51450: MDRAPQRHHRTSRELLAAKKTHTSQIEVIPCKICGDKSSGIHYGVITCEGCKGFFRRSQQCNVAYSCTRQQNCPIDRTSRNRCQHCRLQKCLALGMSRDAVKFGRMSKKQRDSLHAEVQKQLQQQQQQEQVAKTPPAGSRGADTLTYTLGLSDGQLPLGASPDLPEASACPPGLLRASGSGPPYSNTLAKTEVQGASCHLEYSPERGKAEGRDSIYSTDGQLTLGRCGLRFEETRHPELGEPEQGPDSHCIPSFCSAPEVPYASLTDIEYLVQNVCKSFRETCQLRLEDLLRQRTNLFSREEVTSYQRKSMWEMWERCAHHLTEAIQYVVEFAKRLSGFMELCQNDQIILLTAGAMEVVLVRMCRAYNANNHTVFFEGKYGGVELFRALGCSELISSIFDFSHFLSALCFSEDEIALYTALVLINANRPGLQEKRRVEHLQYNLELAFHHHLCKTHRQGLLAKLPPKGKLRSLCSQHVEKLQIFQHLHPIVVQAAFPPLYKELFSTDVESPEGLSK

Biological target: Nuclear receptor ROR-gamma (Mus musculus) (UniProt P51450)
Assay: qHTS for inhibitors of ROR gamma transcriptional activity; further: nearly all actives have a fitted effect of over 60% in size
Conditions: Drosophila S2 Gal4-RORgamma UAS-luciferase reporter, 20 h; series mostly up to 53.6 µM
Method in brief: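 ROR gamma transcriptional activity was tracked as Gal4-UAS luciferase output in stably transfected Drosophila Schneider cells, with compound added 1 hr before 700 uM copper sulfate induction and a 20 hr ambient-temperature incubation.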
Potency means the concentration at half of the fitted maximal effect.

Row | SMILES | Potency
1 | C#Cc1ccc(CN2CCC(Oc3ccc(C(=O)NCc4ccccn4)cc3)CC2)cc1 | inconclusive: 35.5 µM [activator, single point]
2 | CC(=O)Nc1ccc(S(=O)(=O)N/N=C/c2ccc(C)o2)cc1 | inconclusive: 0.112 µM [inhibitor, full curve, poor fit]
3 | CCCCn1c(-c2cccs2)nc2nc3ccccc3nc21 | inactive
4 | COc1cccc(CNC(=O)Cn2cc3c(n2)CCCC3)c1 | inconclusive: 17.8 µM [activator, single point]
5 | CSCC[C@H](NC(=O)Cc1ccc(Cl)cc1)C(=O)N1CCC2(CC1)NCCc1[nH]cnc12 | inactive
6 | N#C/C(=C\c1ccc([N+](=O)[O-])o1)C(=O)Nc1ccc(F)cc1 | inconclusive: 35.5 µM [inhibitor, single point]
7 | COc1ccc(-c2cn[nH]c2-c2ccc(OCC(=O)NN)cc2O)cc1 | inactive
8 | Cc1ccc(-n2cc(CN3CCC(CO)(Cc4cccc(C(F)(F)F)c4)CC3)cn2)cc1 | active: 17.8 µM
9 | CCOc1ccc(CSCCNC(=S)Nc2ccccc2)cc1 | active: 6.31 µM
10 | COCCCNC(=O)C(C)N1c2cccc3cccc(c23)S1(=O)=O (configuration not stated) | inconclusive: 14.1 µM [inhibitor, single point]
11 | Cc1cc(CC(C)C)n(-c2nc3ccccc3c(=O)n2OCC(=O)N(C)C)n1 | active: 2.24 µM
12 | COCCNC(=O)CSc1nc2nn(-c3ccccc3)c(=O)c-2c2n1CCCCC2 | inactive
13 | C=CCn1c(=NC(=O)c2ccccc2[N+](=O)[O-])sc2cc(S(C)(=O)=O)ccc21 | inconclusive: 11.2 µM [activator, partial curve]
14 | Nn1c(Cc2ccccc2F)nnc1SCC(=O)N1CC(=O)Nc2ccccc21 | inconclusive: 0.224 µM [activator, full curve, poor fit]
15 | Clc1ccc(/C=N/NC(=Nc2ccccc2)c2ccccn2)c(Cl)c1 | active: 12.6 µM
16 | C=CCn1c(=N)n(CC(=O)c2ccc(Cl)cc2)c2ccccc21 | inconclusive: 17.8 µM [inhibitor, single point]
17 | CC1CCN(S(=O)(=O)c2ccc3c(ccn3CC(=O)O)c2)CC1 | inactive
18 | CC1CCN(C(=O)c2[nH]cnc2C(=O)N[C@@H](Cc2ccccc2)C(=O)OC(C)(C)C)CC1 | inconclusive: 15.8 µM [inhibitor, single point]
19 | CC(C)(C)c1ccc(-n2nc(C#N)c(Cl)cc2=O)cc1 | active: 7.08 µM
20 | COc1ccc(Nc2nc(N3CCOCC3)nc(N3CCOCC3)n2)cc1Cl | inconclusive: 2.82 µM [activator, partial curve, poor fit]
21 | CCN(Cc1nc2ccccc2c(=O)[nH]1)Cc1cc(=O)oc2cc(OC)ccc12 | active: 14.1 µM
22 | Cc1cccc(Cn2cnc3c(N)c(C)c(C)cc32)c1 | inconclusive: 11.2 µM [inhibitor, partial curve]
23 | S=C(NCC1CCCO1)Nc1ccc(Cl)c(Cl)c1 (configuration not stated) | active: 3.55 µM
24 | Cc1cc(C)c2nc(NNC(=O)c3ccc(S(=O)(=O)N4CCCC(C)C4)cc3)sc2c1 (configuration not stated) | active: 0.794 µM

Reformatted: results already given.
Row	SMILES	Potency
7	COc1ccc(-c2cn[nH]c2-c2ccc(OCC(=O)NN)cc2O)cc1	inactive
9	CCOc1ccc(CSCCNC(=S)Nc2ccccc2)cc1	active: 6.31 µM
13	C=CCn1c(=NC(=O)c2ccccc2[N+](=O)[O-])sc2cc(S(C)(=O)=O)ccc21	inconclusive: 11.2 µM [activator, partial curve]
15	Clc1ccc(/C=N/NC(=Nc2ccccc2)c2ccccn2)c(Cl)c1	active: 12.6 µM

Additional compounds follow.

Row | SMILES | Potency
25 | COc1cc(/C=C2\C(=N)N3N=C(N4CCOCC4)SC3=NC2=O)ccc1OC(=O)c1ccccc1 | inconclusive: 17.8 µM [inhibitor, single point]
26 | CN(C)c1ccc(CNS(=O)(=O)c2csc(C(N)=O)c2)cc1 | inactive
27 | COC(=O)c1sc2ccccc2c1NC(=O)c1coc2ccccc2c1=O | inconclusive: 4.47 µM [activator, full curve, poor fit]
28 | CC(=O)Nc1ccc(Nc2ccc(S(=O)(=O)C(F)(F)F)cc2[N+](=O)[O-])cc1 | inconclusive: 20 µM [activator, partial curve]
29 | CC(=O)OC(/C(O)=C(\C#N)c1nc2ccccc2[nH]1)c1ccccc1 (configuration not stated) | active: 14.1 µM
30 | CCCc1c(NC(=O)Nc2ccc(F)cc2)cnn1-c1ccccc1 | inconclusive: 8.91 µM [activator, partial curve, poor fit]
31 | CCCn1c(C(C)NS(=O)(=O)c2ccccc2)n[nH]c1=S (configuration not stated) | active: 10 µM
32 | COc1cccc(NC(=O)NC2CCN(CC(=O)Nc3ccccc3[N+](=O)[O-])CC2)c1 | inconclusive: 0.891 µM [activator, full curve, poor fit]
33 | N/C(=N\OC(=O)/C=C/c1ccccc1Cl)c1ccccn1 | active: 11.2 µM
34 | Cc1ccc(-c2csc3nc(CN(C)Cc4ccccc4)[nH]c(=O)c23)cc1 | active: 1.26 µM
35 | FC(F)(F)c1cc(CCN2C(=S)NC[C@@H]2c2ccccc2)cc(C(F)(F)F)c1 | active: 5.62 µM
36 | CCOc1ccc(NC(C(=O)Nc2cccc(C(C)=O)c2)c2ccccc2)cc1 (configuration not stated) | inconclusive: 35.5 µM [activator, single point]
37 | O=C(Nc1nccs1)c1cc(S(=O)(=O)N2CCOCC2)c(Cl)cc1Cl | inconclusive: 17.8 µM [inhibitor, single point]
38 | CCCCSC(=S)NC1CCS(=O)(=O)C1 (configuration not stated) | inactive
39 | CCOC(=O)c1ccc2[nH]c3ccccc3c2c1 | inconclusive: 6.31 µM [activator, single point]
40 | COc1ccc(-c2ccc(/C=C3/C(=N)N4C=CSC4=NC3=O)o2)c([N+](=O)[O-])c1 | active: 2.51 µM
41 | COc1ccccc1OCCOc1ccc(C(=O)c2ccccc2)cc1 | inconclusive: 25.1 µM [activator, single point]
42 | O=C(Nc1cccc(F)c1)c1ccc(-c2ccccc2Cl)o1 | inconclusive: 12.6 µM [activator, partial curve]
43 | Cc1ccc(-c2nc(SCC(=O)Nc3cc(C)on3)c3c(=O)n(C)c(=O)n(C)c3n2)cc1 | inactive
44 | COc1ccc(-c2nnc(OCc3nc4ccccc4n3C)c3ccccc23)cc1 | inconclusive: 20 µM [inhibitor, partial curve, poor fit]
45 | CCOc1ccc(NC(=O)Cn2cncc2-c2ccc([N+](=O)[O-])cc2)cc1 | inconclusive: 35.5 µM [inhibitor, single point]
46 | COc1cc(/C=C2/C(=N)N3C=CSC3=NC2=O)ccc1OCCCOc1ccccc1C | active: 4.47 µM
47 | O=C(Nc1ccccc1)Nc1ccc(S(=O)(=O)N2CCCCC2)cc1 | inconclusive: 35.5 µM [activator, single point]
48 | O=C(/C=C/Nc1ccccc1F)c1cccs1 | inconclusive: 11.2 µM [inhibitor, single point]

Row | SMILES | Potency
49 | O=C(CNC(=O)c1ccncc1)N/N=C/c1cc(Br)ccc1OCc1ccccc1 | inactive
50 | O=S(=O)(Nc1cc(O)cc2cccnc12)c1ccc(Br)s1 | active: 7.94 µM
51 | O=C(Nc1ccc(F)cc1)c1ccc(CSc2ccc(Cl)cc2)o1 | inconclusive: 15.8 µM [activator, single point]
52 | O=C(O)c1ccccc1/C=N/Nc1nc(N2CCCCC2)nc(N2CCCCC2)n1 | inactive
53 | CCOc1ccccc1Nc1nc(N)nc(CN(C)C2CCCCC2)n1 | active: 11.2 µM
54 | Cc1ccccc1N=Nc1ccc(O)c2ncccc12 | active: 0.631 µM
55 | COC(=O)c1ccc(COC(=O)c2ccc(N(C)C)cc2)cc1 | inactive
56 | CN1CCN(C(=O)CCCOc2cc(=O)n(C)c3ccccc23)CC1 | inconclusive: 35.5 µM [inhibitor, single point]
57 | COC(=O)C1=C(C(=O)OC)[C@@H]2N(Cc3ccccc3)c3ccccc3[C@@]23C[C@@H](C(=O)OC)N(C(=O)COCc2ccccc2)C3=N1 | inconclusive: 3.16 µM [activator, single point]
58 | Oc1ccccc1-c1cc(C(F)(F)F)[nH]n1 | inconclusive: 28.2 µM [activator, single point]
59 | COc1ccc(Nc2nc(C)c(-c3ccccc3)s2)cc1 | active: 11.2 µM
60 | CCn1cc(C(=O)N[C@H](C(=O)NCCCn2ccnc2)C(C)C)c(=O)c2cc3c(cc21)OCO3 | inactive
61 | C/C(CCc1ccc2c(c1)OCO2)=N\N=C(/N)SC1CC(=O)N(c2ccccc2F)C1=O (configuration not stated) | inconclusive: 5.62 µM [inhibitor, single point]
62 | COc1cc2c(cc1OC)C(c1ccc(-c3ccccc3Cl)o1)=NCC2 | active: 11.2 µM
63 | Cc1ccc2nc(C(F)C(F)(F)F)[nH]c2c1 (configuration not stated) | inconclusive: 20 µM [inhibitor, single point]
64 | Cc1ccc(/C=C2\SC(=S)N(CCC(=O)NNC(=O)c3cccc(O)c3)C2=O)cc1 | inconclusive: 6.31 µM [inhibitor, partial curve, poor fit]
65 | CN(C)S(=O)(=O)c1ccc(NC(=O)/C=C/c2ccccc2Cl)cc1 | active: 0.501 µM
66 | S=C(NCc1cccnc1)Nc1cc(Cl)cc(Cl)c1 | inactive
67 | Cc1ccc(NC(=O)C/C(N)=N/OC(=O)c2ccccc2)cc1 | inconclusive: 28.2 µM [inhibitor, single point]
68 | CC(=O)Nc1ccc(S(=O)(=O)N2CCC(c3nc4ccc(C)cc4[nH]3)CC2)cc1 | inactive
69 | COc1ccc(C2C(C#N)=C(N)Oc3c2c(-c2ccccc2)nn3-c2ccccc2)c(OC)c1OC (configuration not stated) | inconclusive: 5.62 µM [activator, partial curve]
70 | CCCNC(=O)OCCC12CC3CC(CC(C3)C1)C2 | inconclusive: 3.55 µM [inhibitor, partial curve, poor fit]
71 | O=C(CSc1nnnn1-c1ccc(F)cc1)Nc1nc2ccccc2s1 | inconclusive: 10 µM [inhibitor, partial curve]
72 | O=C(N/N=C/c1c[nH]c2ccccc12)c1cc(Cl)ccc1O | active: 5.01 µM
